Conditions in all cases: 24 h
In assay [1] the test system is Human fetal astrocytes. The experiment in a line: loss of total cells relative to no-compound high-control median (toxicity); higher = more toxic (fewer cells).
The test system of assay [2] is Human fetal astrocytes. The assay is described as above. This is another data set of the same source.
Assay [3] has as its system Human fetal astrocytes. The experiment in a line: synaptosome phagocytosis (pHrodo/calcein intensity ratio) relative to plate median of data wells; higher = more phagocytosis.
The test system of assay [4] is Human fetal astrocytes. The description is as above. The source holds these as a separate data set.

SMILES strings stand for the structures. Structures can show the parent of a compound that is named as a salt. The list shows a part of the results. Single values are uncertain, as repeats are few or missing.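 Labelled rat cortical synaptosomes were engulfed by primary human fetal astrocytes. Engulfment equaled a red/green ratio, corrected for calcein live-cell signal and normalized to the plate median. Compounds were toxic when calcein dropped over 30%, and reduced phagocytosis when below 70% of the median above 5 µM.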

As to `COC(=O)C1=CCCN(C)C1` [Arecoline hydrobromide], the “loss of total cells” value was -18.7% with Human fetal astrocytes [1] (1.39 µM); -28.3% in the assay with Human fetal astrocytes [1] (2.78 µM); -14.3% with Human fetal astrocytes [1] (5.56 µM); -15.7% with Human fetal astrocytes [1] (11.11 µM); -5.6% with Human fetal astrocytes [1] (22.22 µM); 6.8% in the assay on Human fetal astrocytes [2] (1.39 µM). Also, the “loss of total cells” value is -15.9% in the assay on Human fetal astrocytes [2] (2.78 µM), 2.1% in the assay with Human fetal astrocytes [2] (5.56 µM), -3.7% with Human fetal astrocytes [2] (11.11 µM) and 19.1% in the assay with Human fetal astrocytes [2] (22.22 µM). Also, the synaptosome phagocytosis in the assay on Human fetal astrocytes [3] (1.39 µM) was 97.4%; in the assay with Human fetal astrocytes [3] (2.78 µM), 114%; in the assay on Human fetal astrocytes [3] (5.56 µM), 119%; in the assay on Human fetal astrocytes [3] (11.11 µM), 95%; with Human fetal astrocytes [3] (22.22 µM) it was 111%; with Human fetal astrocytes [4] (1.39 µM), 99%. The synaptosome phagocytosis is 70.9% with Human fetal astrocytes [4] (2.78 µM), 86.5% with Human fetal astrocytes [4] (5.56 µM), 88.8% in the assay with Human fetal astrocytes [4] (11.11 µM) and 100% with Human fetal astrocytes [4] (22.22 µM).

`CC(NC(C)(C)C)C(=O)c1cccc(Cl)c1` (stereo not given) [Bupropion hydrochloride]: the “loss of total cells” value with Human fetal astrocytes [1] (1.39 µM) is -23.1%; with Human fetal astrocytes [1] (2.78 µM), -11.7%; with Human fetal astrocytes [1] (5.56 µM), -23.5%; in the assay with Human fetal astrocytes [1] (11.11 µM) it was -20.2%; in the assay with Human fetal astrocytes [1] (22.22 µM), -14.7%; with Human fetal astrocytes [2] (1.39 µM), 21%. Also, the “loss of total cells” value with Human fetal astrocytes [2] (2.78 µM) was -36.5%; in the assay with Human fetal astrocytes [2] (5.56 µM) it was 19.9%; in the assay on Human fetal astrocytes [2] (11.11 µM), 27.2%; in the assay with Human fetal astrocytes [2] (22.22 µM) it was 9%. In addition, the synaptosome phagocytosis in the assay on Human fetal astrocytes [3] (1.39 µM) was 132%; in the assay on Human fetal astrocytes [3] (2.78 µM), 85.5%; in the assay with Human fetal astrocytes [3] (5.56 µM), 144%; in the assay with Human fetal astrocytes [3] (11.11 µM), 114%; in the assay with Human fetal astrocytes [3] (22.22 µM), 106%; with Human fetal astrocytes [4] (1.39 µM), 97.2%. Also, the synaptosome phagocytosis in the assay on Human fetal astrocytes [4] (2.78 µM) was 90.3%; in the assay with Human fetal astrocytes [4] (5.56 µM), 120%; in the assay on Human fetal astrocytes [4] (11.11 µM) it was 115%; in the assay on Human fetal astrocytes [4] (22.22 µM) it was 97.1%.

Turning to `C1CCc2nnnn2CC1` [Pentylenetetrazole], the “loss of total cells” value with Human fetal astrocytes [1] (1.39 µM) was -20.4%; with Human fetal astrocytes [1] (2.78 µM), 18.6%; in the assay on Human fetal astrocytes [1] (5.56 µM), -8.9%; with Human fetal astrocytes [1] (11.11 µM), 7.6%; in the assay with Human fetal astrocytes [1] (22.22 µM), 1.9%; with Human fetal astrocytes [2] (1.39 µM), 27.9%. Also, the “loss of total cells” value in the assay with Human fetal astrocytes [2] (2.78 µM) was 8.6%; in the assay with Human fetal astrocytes [2] (5.56 µM) it was -16%; in the assay with Human fetal astrocytes [2] (11.11 µM), 38.7%; with Human fetal astrocytes [2] (22.22 µM), 22.6%. In addition, the synaptosome phagocytosis in the assay on Human fetal astrocytes [3] (1.39 µM) is 121%; with Human fetal astrocytes [3] (2.78 µM), 93%; in the assay on Human fetal astrocytes [3] (5.56 µM) it was 77.9%; in the assay with Human fetal astrocytes [3] (11.11 µM) it was 153%; with Human fetal astrocytes [3] (22.22 µM), 114%; in the assay on Human fetal astrocytes [4] (1.39 µM), 98.7%. For the same compound, the synaptosome phagocytosis in the assay on Human fetal astrocytes [4] (2.78 µM) was 91.4%; in the assay on Human fetal astrocytes [4] (5.56 µM), 110%; in the assay with Human fetal astrocytes [4] (11.11 µM), 104%; with Human fetal astrocytes [4] (22.22 µM), 108%.

Consider `NC(=O)CN1CCCC1=O` [Piracetam], for which the “loss of total cells” value is -18.5% in the assay with Human fetal astrocytes [1] (1.39 µM); 4.1% with Human fetal astrocytes [1] (2.78 µM); -9.9% with Human fetal astrocytes [1] (5.56 µM); 16.2% in the assay on Human fetal astrocytes [1] (11.11 µM); 16.8% in the assay on Human fetal astrocytes [1] (22.22 µM); -8.3% in the assay with Human fetal astrocytes [2] (1.39 µM). The “loss of total cells” value in the assay on Human fetal astrocytes [2] (2.78 µM) was -6.4%; in the assay on Human fetal astrocytes [2] (5.56 µM), -5.1%; with Human fetal astrocytes [2] (11.11 µM), 25%; in the assay on Human fetal astrocytes [2] (22.22 µM) it was -6.2%. Moreover, the synaptosome phagocytosis is 87.4% in the assay on Human fetal astrocytes [3] (1.39 µM); 107% with Human fetal astrocytes [3] (2.78 µM); 88.4% in the assay on Human fetal astrocytes [3] (5.56 µM); 105% with Human fetal astrocytes [3] (11.11 µM); 109% in the assay on Human fetal astrocytes [3] (22.22 µM); 107% with Human fetal astrocytes [4] (1.39 µM). The synaptosome phagocytosis is 87% in the assay on Human fetal astrocytes [4] (2.78 µM), 82.7% in the assay with Human fetal astrocytes [4] (5.56 µM), 131% in the assay with Human fetal astrocytes [4] (11.11 µM) and 122% with Human fetal astrocytes [4] (22.22 µM).

As for `COc1ccc(C(=O)N2CCCC2=O)cc1` [Aniracetam], the “loss of total cells” value with Human fetal astrocytes [1] (1.39 µM) is -8.1%; in the assay with Human fetal astrocytes [1] (2.78 µM), -17.1%; with Human fetal astrocytes [1] (5.56 µM), -27.2%; with Human fetal astrocytes [1] (11.11 µM) it was -31.8%; in the assay on Human fetal astrocytes [1] (22.22 µM) it was 10.2%; in the assay on Human fetal astrocytes [2] (1.39 µM), 5.4%. Also, the “loss of total cells” value in the assay with Human fetal astrocytes [2] (2.78 µM) is 12%; in the assay on Human fetal astrocytes [2] (5.56 µM), -16%; with Human fetal astrocytes [2] (11.11 µM) it was 32.3%; in the assay on Human fetal astrocytes [2] (22.22 µM), 4.8%. Besides, the synaptosome phagocytosis with Human fetal astrocytes [3] (1.39 µM) was 63.9%; in the assay on Human fetal astrocytes [3] (2.78 µM) it was 103%; in the assay with Human fetal astrocytes [3] (5.56 µM) it was 51.7%; in the assay on Human fetal astrocytes [3] (11.11 µM), 128%; in the assay with Human fetal astrocytes [3] (22.22 µM) it was 70.4%; with Human fetal astrocytes [4] (1.39 µM), 122%. In addition, the synaptosome phagocytosis in the assay with Human fetal astrocytes [4] (2.78 µM) was 104%; in the assay with Human fetal astrocytes [4] (5.56 µM), 133%; with Human fetal astrocytes [4] (11.11 µM) it was 85.8%; in the assay with Human fetal astrocytes [4] (22.22 µM) it was 120%.

Regarding `OC1CCCCC1N1CCC(c2ccccc2)CC1` (racemic) [(±)-Vesamicol hydrochloride], the “loss of total cells” value was -28.3% in the assay on Human fetal astrocytes [1] (1.39 µM); -20.1% in the assay on Human fetal astrocytes [1] (2.78 µM); -1.7% in the assay with Human fetal astrocytes [1] (5.56 µM); -26.4% with Human fetal astrocytes [1] (11.11 µM); -26.3% in the assay with Human fetal astrocytes [1] (22.22 µM); -17.8% with Human fetal astrocytes [2] (1.39 µM). Further, the “loss of total cells” value was 6.6% in the assay with Human fetal astrocytes [2] (2.78 µM), -3.8% in the assay with Human fetal astrocytes [2] (5.56 µM), 47.1% in the assay on Human fetal astrocytes [2] (11.11 µM) and 7.8% in the assay on Human fetal astrocytes [2] (22.22 µM). The synaptosome phagocytosis in the assay on Human fetal astrocytes [3] (1.39 µM) was 85.6%; in the assay on Human fetal astrocytes [3] (2.78 µM), 50.6%; in the assay on Human fetal astrocytes [3] (5.56 µM), 102%; in the assay with Human fetal astrocytes [3] (11.11 µM), 137%; in the assay with Human fetal astrocytes [3] (22.22 µM), 101%; in the assay with Human fetal astrocytes [4] (1.39 µM) it was 92.1%. The synaptosome phagocytosis is 104% in the assay on Human fetal astrocytes [4] (2.78 µM), 91% in the assay with Human fetal astrocytes [4] (5.56 µM), 99.8% in the assay with Human fetal astrocytes [4] (11.11 µM) and 120% with Human fetal astrocytes [4] (22.22 µM).

(Values after the supplement of paper PMC10689618.)
